The record followed here is patent US20220340899A1 (UNIVERSITÄT BERN, priority 2019, published 2022).

The series can be described thus: general procedure: Fmoc solid-phase peptide synthesis; Tentagel S RAM resin (0.22-0.25 mmol/g), 300 mg; PyBOP/DIPEA (manual); Oxyma/DIC (synthesiser). Conditions: whole synthesis, trifluoroacetate salt; for isolated yield: scale of the general procedure 0.10 mmol (CEM Liberty Blue).

With “(KH)8(KKH)4(KKL)2KK(Oleic Acid)K(Oleic Acid)”, the isolated yield was determined as 3% and the isolated mass is 2.7 mg.
Turning to (KL)8(KKL)4(KKL)2KK(C18)K(C18), where the note is “run 1”, the isolated yield was found to be 2% and the isolated mass is 2.3 mg.
For (KL)8(KKL)4(KKL)2KK(Oleic Acid)C, for the setting “run 1”, the isolated yield came to 2% and the isolated mass is reported as 2.3 mg. For the same substance, under “run 2”, the isolated yield is given as 4% and the isolated mass stood at 5.85 mg.
For the substance (KL)8(KKL)4(KKL)2KLLLL, the isolated yield turned out to be 2% and the isolated mass was 8.5 mg.
With (KL)8(KKL)4(KLL)2KFFF, the isolated yield was 3% and the isolated mass is given as 13.7 mg.
Take (KL)8(KKL)4(KLL)2KK(C14)K(C14): the isolated yield was 1% and the isolated mass is 2.3 mg.
On to (KL)8(KKL)4(KLL)2KK(C16)K(C16), for which the isolated yield was determined as 4% and the isolated mass was 26.8 mg.
The corresponding values for (KL)8(KKL)4(KLL)2KK(C18) are 2% and 6.0 mg.
For (KL)8(KKL)4(KLL)2KK(C18)K(C18), the isolated yield is on record as 1% and the isolated mass is recorded as 2.4 mg.
For (KL)8(KKL)4(KLL)2KK(C20), the isolated yield came to 1% and the isolated mass was 4.1 mg.
As for (KL)8(KKL)4(KLL)2KK(C22), the isolated yield reads like this: (run 1) 8%; (run 2) 1%. Besides, the isolated mass (run 1) was found to be 11.4 mg and the isolated mass (run 2) came out at 3.2 mg.
Consider (KL)8(KKL)4(KLL)2KK(C24), for which the isolated yield is listed as 1% and the isolated mass is on record as 4.5 mg.
The corresponding values for (KL)8(KKL)4(KLL)2KK(C26) are 1% and 3.1 mg.
The corresponding values for (KL)8(KKL)4(KLL)2KK(C28) are 1% and 3.1 mg.
As to (KL)8(KKL)4(KLL)2KLLLL, the isolated yield came out at 8% and the isolated mass stood at 52.7 mg.
The corresponding values for (KL)8(KKL)4(KLL)2KLLLLL are 1% and 4.7 mg.
The corresponding values for (KL)8(KKL)4(KLL)2KNleNleNleNle are 1% and 5.1 mg.
For (KL)8(KKL)4(KLL)2KWWWW, the isolated yield is 1% and the isolated mass is given as 4.5 mg.
(KL)8(KKL)4(KLL)2KWWWWW: the isolated yield is on record as 1% and the isolated mass is listed as 1.7 mg.
Consider (KL)8(KLL)4(KLL)2KLLLL, for which the isolated yield stood at 2% and the isolated mass amounted to 10.1 mg.
Consider (RL)8(KRL)4(KLL)2KLLLL, for which the isolated yield came to 5% and the isolated mass was 25.9 mg.
As to (kl)8(KKL)4(KLL)2KK(C16)K(C16), the isolated yield is reported as 2% and the isolated mass was 16.2 mg.
As to (kl)8(kkl)4(kkl)2kk(C16), the isolated yield was 16% and the isolated mass came out at 22 mg.
The corresponding values for (kl)8(kkl)4(kkl)2kk(C16)c are 3% and 6.04 mg.
The corresponding values for (kl)8(kkl)4(kkl)2kk(C18) are 23% and 20 mg.
The corresponding values for (kl)8(kkl)4(kkl)2kk(C18)a are 18% and 114 mg.
In the case of (kl)8(kkl)4(kll)2kaocaocaoc, the isolated yield amounted to 2% and the isolated mass stood at 8.4 mg.
The corresponding values for (kl)8(kkl)4(kll)2kaocaocaocaoc are 3% and 13.3 mg.
Consider (kl)8(kkl)4(kll)2kfff, for which, where the note is “run 1”, the isolated yield worked out at 1% and the isolated mass worked out at 0.7 mg.
For the substance (kl)8(kkl)4(kll)2kk(C16)k(C16), the isolated yield is 7% and the isolated mass is reported as 128.4 mg.
The corresponding values for (kl)8(kkl)4(kll)2klllc are 21% and 129.5 mg.
Turning to (kl)8(kkl)4(kll)2kllll, the isolated yield turned out to be 11% and the isolated mass was found to be 73.6 mg.
Regarding (kl)8(kkl)4(kll)2knlenlenlenle, the isolated yield worked out at 4% and the isolated mass worked out at 19.3 mg.
As for (kl)8(kkl)4(knlenle)2kk(C16)k(C16), the isolated mass is given as 12.7 mg. The isolated yield (run 1) turned out to be 3%.
In the case of (kl)8(krl)4(kll)2knlenlenlenle, the isolated yield came to 5% and the isolated mass came out at 17.3 mg.
In the case of (rl)8(kkl)4(kll)2knlenlenlenle, the isolated yield was found to be 1% and the isolated mass is 1.6 mg.
As for (rl)8(krl)4(krl)2kk(C16), the isolated yield amounted to 11% and the isolated mass stood at 14 mg.
As for (rl)8(krl)4(krl)2kk(C16)c, the isolated yield was found to be 4% and the isolated mass is reported as 9 mg.
Consider (rl)8(krl)4(krl)2kk(C18), for which the isolated yield is 15% and the isolated mass came out at 13 mg.
In the case of (rl)8(krl)4(krl)2kk(C18)a, the isolated yield is reported as 12% and the isolated mass is on record as 25 mg.
As for (rl)8(krl)4(krl)2kk(C18)c, the isolated yield is 14% and the isolated mass was 26.6 mg.
